Paper PMC7758017 (Iranian Journal of Pharmaceutical Research : IJPR, 2020)

Columns and labels:
[1] = higher in old, ref [31]; cited from earlier work
in vivo = conditions: male, Wistar, rat, im
[2] = Plasma pharmacokinetics after single i.m. injection in rats (HPLC-UV); conditions: male, Wistar, rat, in vivo, im

COc1cc2c(cc1OC)C(=O)C(CC1CCN(Cc3ccccc3)CC1)C2 (centres unmarked) [Donepezil]
brain concentration in old rats compared to young animals [1]: 1.8 fold | CL/F (in vivo): 1000 ± 130 mL/min/kg | Tmax (in vivo): 22 min | half-life (in vivo): 57.1 ± 10.1 min | Vd/F [2]: 82.1 ± 13.9 L/kg
